Laboratory results: PubChem BioAssay AID686937 (Drosophila RNAi Screening Center, 2013)
The screen tested about 23,000 reagents; shown is a random part of those that have a named target and a result. 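Reduced-secretion tags in replicate 1 do not always agree with the z-scores; no criterion for assigning the tags was given.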 A plus sign joins genes that one reagent is predicted to hit. Not all columns of the deposit are shown. Not stated in the record: the amount of reagent.

- Purpose: 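Knock-downs that reduce output of a secreted reporter enzyme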 (primary screen)
- Cell system: Drosophila S2 cells expressing secreted horseradish peroxidase
- Reagents: long dsRNA against Drosophila genes
- Duration: about 5.5 days (5 days dsRNA, then 12 h reporter induction)
- Challenge: reporter expression induced after 5 days of dsRNA, read 12 h later; inducer not stated
- Measurement: 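After 5 days of dsRNA and 12 h of reporter induction, medium peroxidase read by chemiluminescence and scored as per-plate z-score; higher values mean more reporter released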
- Direction: z-score: higher = more reporter secreted into medium

CG6479 (GeneID 39930) [DRSC10647] | z-score, replicate 1 = 0.01
Sfp38D (GeneID 8673971) [DRSC01810] | z-score, replicate 1 = -0.27
Dbct (GeneID 32441) [DRSC19951] | z-score, replicate 1 = 0.18
Mlc2 (GeneID 43587) [DRSC16741] | z-score, replicate 1 = 0.5
ohgt (GeneID 41230) [DRSC15521] | z-score, replicate 1 = 0.47
Gr36c (GeneID 117486) [DRSC02437] | z-score, replicate 1 = 0.83
RpL7-like (GeneID 34625) [DRSC02836] | z-score, replicate 1 = -3.32
Rh50 (GeneID 38589) [DRSC08692] | z-score, replicate 1 = 0.42
CG9628 (GeneID 39593) [DRSC11082] | z-score, replicate 1 = 0.35
ppk27 (GeneID 38440) [DRSC08168] | z-score, replicate 1 = 0.43
ppk27 (GeneID 38440) [DRSC22211] | z-score, replicate 1 = -0.03
Fer1HCH (GeneID 46415) [DRSC16671] | z-score, replicate 1 = -0.41
SdhCL (GeneID 41324) [DRSC16078] | z-score, replicate 1 = 0.48
CG15459 (GeneID 33036) [DRSC20530] | z-score, replicate 1 = 0.49
CG15459 (GeneID 33036) [DRSC21383] | z-score, replicate 1 = 0.5
RnrL (GeneID 34392) [DRSC03413] | z-score, replicate 1 = -0.13
dpr8 (GeneID 32387) [DRSC19406] | z-score, replicate 1 = -0.14
dpr8 (GeneID 32387) [DRSC19600] | z-score, replicate 1 = 0.36
dpr8 (GeneID 32387) [DRSC19938] | z-score, replicate 1 = 0.25
dpr8 (GeneID 32387) [DRSC19939] | z-score, replicate 1 = 0.19
Polr2F (GeneID 48312) [DRSC12366] | z-score, replicate 1 = -3.7; phenotype, replicate 1 = reduced secretion
RabX2 (GeneID 31971) [DRSC18234] | z-score, replicate 1 = 0.11
Trs20 (GeneID 39769) [DRSC10489] | z-score, replicate 1 = -2.04; phenotype, replicate 1 = reduced secretion
ppk22 (GeneID 318593) [DRSC22093] | z-score, replicate 1 = -0.19
dop (GeneID 39686) [DRSC10655] | z-score, replicate 1 = 0.36
CG4537 (GeneID 34306) [DRSC02756] | z-score, replicate 1 = 0.46
lncRNA:mimi (GeneID 12798523) [DRSC21429] | z-score, replicate 1 = -0.31
CG34232 (GeneID 5740195) [DRSC05332] | z-score, replicate 1 = -0.32
CG7950 + Rpp14a [DRSC16353] | z-score, replicate 1 = 0.14
TpnC41C (GeneID 35473) [DRSC04916] | z-score, replicate 1 = 0.16
CG30378 (GeneID 246577) [DRSC05071] | z-score, replicate 1 = -0.14
SLC22A (GeneID 40437) [DRSC11826] | z-score, replicate 1 = 0.2
SLC22A (GeneID 40437) [DRSC11827] | z-score, replicate 1 = 0.21
Hrb87F (GeneID 48535) [DRSC16708] | z-score, replicate 1 = 0.1
CG7707 (GeneID 39923) [DRSC10903] | z-score, replicate 1 = 0.08
Or45a (GeneID 35958) [DRSC07487] | z-score, replicate 1 = 0.08
ACXB (GeneID 53427) [DRSC00845] | z-score, replicate 1 = -1.71; phenotype, replicate 1 = reduced secretion
DhpD (GeneID 40528) [DRSC12288] | z-score, replicate 1 = 0.4
CG15653 (GeneID 37388) [DRSC04244] | z-score, replicate 1 = 0.23
CG13760 (GeneID 31237) [DRSC18617] | z-score, replicate 1 = 0.42
Rbp (GeneID 41880) [DRSC15724] | z-score, replicate 1 = -2.86; phenotype, replicate 1 = reduced secretion
Rbp (GeneID 41880) [DRSC15726] | z-score, replicate 1 = -0.23
Su(var)2-10 (GeneID 35927) [DRSC07721] | z-score, replicate 1 = 0.45
CG5895 (GeneID 39752) [DRSC10554] | z-score, replicate 1 = 0.48
Sf3b5 (GeneID 50007) [DRSC14460] | z-score, replicate 1 = -2.58; phenotype, replicate 1 = reduced secretion
TBC1D5 (GeneID 41628) [DRSC16421] | z-score, replicate 1 = 0.4
CG13907 (GeneID 38104) [DRSC08377] | z-score, replicate 1 = 0.39
Dsk (GeneID 45845) [DRSC12347] | z-score, replicate 1 = 0.24
mute (GeneID 2768848) [DRSC06562] | z-score, replicate 1 = -1.43
mute (GeneID 2768848) [DRSC22931] | z-score, replicate 1 = -1.04; phenotype, replicate 1 = reduced secretion
Acp26Ab (GeneID 33816) [DRSC01856] | z-score, replicate 1 = -7.63; phenotype, replicate 1 = reduced secretion

Ordered by “z-score, replicate 1” (highest first): some entries from above.
dpr8 (GeneID 32387) [DRSC19600] | z-score, replicate 1 = 0.36
dop (GeneID 39686) [DRSC10655] | z-score, replicate 1 = 0.36
dpr8 (GeneID 32387) [DRSC19938] | z-score, replicate 1 = 0.25
dpr8 (GeneID 32387) [DRSC19939] | z-score, replicate 1 = 0.19
RabX2 (GeneID 31971) [DRSC18234] | z-score, replicate 1 = 0.11
ppk22 (GeneID 318593) [DRSC22093] | z-score, replicate 1 = -0.19
Trs20 (GeneID 39769) [DRSC10489] | z-score, replicate 1 = -2.04; phenotype, replicate 1 = reduced secretion
Polr2F (GeneID 48312) [DRSC12366] | z-score, replicate 1 = -3.7; phenotype, replicate 1 = reduced secretion
